Results are given in words; binding and its absence hold for the method and conditions named. Binding can be weak; no strength is given. Tags and fused reporters may be left off the sequences shown.
Columns and labels:
[1] = target: T1, Csm1 (two-hybrid fusion) (S. cerevisiae) (UniProt P25651); assay: two-hybrid; Gal4 AD (pGADT7) and BD (pGBKT7) fusions in PJ69a, or Y187 mated with Y2HGold; spotting on -LW and on -LWH, -LWH + 1 mM 3-aminotriazol, -LWHA, 3 days unless indicated
T1 sequence: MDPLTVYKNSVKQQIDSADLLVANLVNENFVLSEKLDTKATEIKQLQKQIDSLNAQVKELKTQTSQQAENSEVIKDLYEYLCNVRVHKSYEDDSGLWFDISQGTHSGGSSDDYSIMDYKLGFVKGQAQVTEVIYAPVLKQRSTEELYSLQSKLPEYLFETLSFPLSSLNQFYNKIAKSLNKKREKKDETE

Chains of the proteins cited; added tags and fusions are not shown. Lines headed by an entry give the natural chain unless they say otherwise; changes in a name come on top.
UniProt Q12066: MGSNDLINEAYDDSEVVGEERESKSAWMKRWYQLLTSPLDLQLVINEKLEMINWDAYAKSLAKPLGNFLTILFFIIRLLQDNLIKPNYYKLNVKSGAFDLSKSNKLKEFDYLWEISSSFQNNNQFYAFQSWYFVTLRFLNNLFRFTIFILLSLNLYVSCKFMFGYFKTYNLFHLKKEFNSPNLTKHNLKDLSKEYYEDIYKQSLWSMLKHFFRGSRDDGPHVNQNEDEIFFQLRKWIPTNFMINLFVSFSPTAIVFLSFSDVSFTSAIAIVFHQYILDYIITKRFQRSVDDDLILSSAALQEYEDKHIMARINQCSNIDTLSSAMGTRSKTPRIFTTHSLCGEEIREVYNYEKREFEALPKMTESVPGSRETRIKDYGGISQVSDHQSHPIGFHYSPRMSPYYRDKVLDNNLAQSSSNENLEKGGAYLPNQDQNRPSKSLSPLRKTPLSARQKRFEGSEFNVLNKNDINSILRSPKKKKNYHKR

[2] = target: T2, Ufd1 (two-hybrid fusion) (S. cerevisiae) (UniProt P53044); assay: as above
T2 sequence: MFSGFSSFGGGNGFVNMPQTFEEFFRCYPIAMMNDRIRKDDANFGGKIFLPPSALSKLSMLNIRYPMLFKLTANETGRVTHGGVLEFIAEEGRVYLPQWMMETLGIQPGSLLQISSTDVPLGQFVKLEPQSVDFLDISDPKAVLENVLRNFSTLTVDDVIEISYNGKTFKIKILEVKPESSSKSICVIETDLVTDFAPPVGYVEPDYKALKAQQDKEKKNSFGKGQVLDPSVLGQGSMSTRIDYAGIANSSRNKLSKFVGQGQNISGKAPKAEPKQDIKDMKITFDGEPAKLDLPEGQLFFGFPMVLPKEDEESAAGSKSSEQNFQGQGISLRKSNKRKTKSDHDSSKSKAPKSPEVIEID

binding [1]: binds | binding [2]: binds
Substance: Nur1 C (C-terminal Nur1 region, two-hybrid fusion) (from UniProt Q12066) (domain or fragment)

From PMC8363623
